Experimental data published in patent publication US11426422B2, “SHP2 inhibitors and methods of use thereof” (Research Development Foundation, priority 2018, dated 2022).
Part of at least one peptide drawing is inferred or uncertain, most often the ends. Where a SMILES comes first, the peptide text is derived from it. Where no end group is shown, it is not given here. [ ]: non-standard residue; d: D form. pS = N[C@@H](COP(=O)(O)O)C(=O)O

Legend:
AP2M1 (residues 160-435) [1] = biological target: T1, AP2M1 (residues 160-435) (Homo sapiens, UniProt Q96CW1); assay: isothermal titration calorimetry (ITC) of IRS1 peptides with AP2M1; assay type: binding; settings: 20° C., HEPES buffer pH 7.5
T1 construct: The AP2M1 fragment (residues 160-435) was cloned into a modified pET28a; His6 (N, cleaved yes); made in house; host or cells: E. coli BL21(DE3)
T1 sequence (Q96CW1 160-435): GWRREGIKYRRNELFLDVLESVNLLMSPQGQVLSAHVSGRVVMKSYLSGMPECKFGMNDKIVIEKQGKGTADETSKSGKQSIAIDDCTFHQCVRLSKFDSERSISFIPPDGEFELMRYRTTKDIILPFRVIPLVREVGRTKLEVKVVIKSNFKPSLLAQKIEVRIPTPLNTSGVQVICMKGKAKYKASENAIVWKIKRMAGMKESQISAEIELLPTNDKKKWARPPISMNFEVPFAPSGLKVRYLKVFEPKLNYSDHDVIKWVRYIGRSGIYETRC
From the text: The unphosphorylated and phosphorylated IRS1 peptides containing 612YMPMS (SEQ ID NO:7) FIG. 7B) were chemically synthesized and used for in vitro pull-down assays to examine their binding to AP2M1 (FIG. 2B). […] Thus, phosphorylation of IRS1 by ERK1/2 enhances IRS1 binding to AP2M1.
The AP2M1 fragment (residues 160-435) was cloned into a modified pET28a that introduced an N-terminal His6-tag followed by a thrombin cleavage site. The plasmid was transformed into BL21(DE3) E. coli cells. Protein expression was induced by 0.2 mM IPTG at 20° C. overnight. The harvested pellets were lysed in the lysis buffer II (20 mM Tris-HCl, pH 7.5, 500 mM NaCl, 20 mM Imidazole, 1 mM PMSF). After sonication, lysates were cleared by centrifugation at 4° C. The supernatants were filtered by […] filter and incubated with pre-equilibrated Ni2+-NTA beads (Qiagen®). […]
(§1) For GST pull-down assays of in vitro translated (IVT) IRS1 proteins, beads bound to GST-AP2M1 or GST were incubated with IVT products diluted in the cell lysis buffer at 4° C. for 2 h. After incubation and washing, proteins bound to beads were eluted with the SDS loading buffer, resolved with SDS-PAGE, and detected with Coomassie staining or immunoblotting with the appropriate antibodies. […]

AP2M1 (residues 160-435) [2] = biological target: T1, AP2M1 (residues 160-435); assay: in vitro peptide pull-down of AP2M1 with IRS1 peptides; assay type: binding; settings: peptide beads pull-down, SDS-PAGE, Coomassie
Protocol: FIGS. 2A-I. The MAPK pathway and SHP2 promote insulin-activated IR endocytosis. (FIG. 2A) HepG2 cells expressing IR-GFP WT were starved, treated with the indicated inhibitors for 2 h, treated without or with 100 nM insulin for 20 min, and stained with anti-GFP (IR; green) and DAPI (blue). See also FIG. 7A for representative images. Quantification of the ratios of PM and IC IR-GFP signals of cells was shown (mean±SD; *p<0.0001). (FIG. 2B) Binding of IRS1 peptides to AP2M1 (residues 160-435). Input and proteins bound to IRS1-peptide beads were analyzed by SDS-PAGE and stained with Coomassie (CBB). The relative band intensities are shown below (mean±SD; n=4 independent experiments). […] (FIG. 2D) The IRS1 peptides were incubated with active SHP2 for the indicated durations, spotted onto membranes, and detected with the anti-pY612-IRS1 antibody. (FIG. 2E) Quantification of the relative SHP2 activity in FIG. 2D (mean±SD; n=4 independent experiments; *p<0.0001). […]
as §1

Compound	Kd (AP2M1 (residues 160-435) [1])	binding to AP2M1 (AP2M1 (residues 160-435) [2])
CSCC[C@H](NC(=O)[C@@H]1CCCN1C(=O)[C@H](CCSC)NC(=O)[C@H](Cc1ccc(O)cc1)NC(=O)CNC(=O)[C@H](CC(=O)O)NC(=O)[C@H](CC(=O)O)NC(=O)[C@@H](NC(=O)[C@H](Cc1c[nH]cn1)NC(=O)[C@@H](N)CS)[C@@H](C)O)C(=O)N[C@@H](COP(=O)(O)O)C(=O)N1CCC[C@H]1C(=O)NCC(=O)N[C@H](C(=O)N[C@@H](C)C(=O)O)C(C)C [pS-IRS1] (H-CHTDDGYMPM[pS]PGVA-OH; N-terminus and C-terminus assumed)	280 nM	enhanced AP2M1 binding
CHTDDGYMPMSPGVA [YMPMS]		bound to AP2M1
